Measured values: patent publication US20230414775A1 (priority 2021, published 2023)

Assay: general procedure: solution-phase peptide synthesis
Conditions: for conjugation yield: conjugation step

Q: For “2-((1R,3R)-3-((2S,3S)-2-((R)-1-(((4-((S)-2-((S)-2-((((9H-fluoren-9-yl)methoxy)carbonyl)amino)-3-methylbutanamido)-5-ureidopentanamido)benzyl)oxy)carbonyl)-2-methylpyrrolidine-2-carboxamido)-N-hexyl-3-methylpentanamido)-1-acetoxy-4-methylpentyl)thiazole-4-carboxylic acid (10-2)”, which conjugation yield is on record?
A: 29% yield

Q: With “2-[(1R,3R)-1-(acetyloxy)-3-[(2S,3S)-2-{[(2R)-1-(2-{[(tert-butoxy)carbonyl]amino}acetyl)-2-methylpyrrolidin-2-yl]formamido}-N-hexyl-3-methylpentanamido]-4-methylpentyl]-1,3-thiazole-4-carboxylic acid (1-9a)” as the substance, how does the step yield (late stage modification step) read?
A: 87% yield

Q: With “(4S)-4-({2-[(1R,3R)-1-(acetyloxy)-3-[(2S,3S)-2-{[(2R)-1-[2-(2-aminoethoxy)ethyl]piperidin-2-yl]formamido}-N-hexyl-3-methylpentanamido]-4-methylpentyl]-1,3-thiazol-4-yl}formamido)-5-(4-aminophenyl)-2,2-dimethylpentanoic acid (PA-14 aka PA11)” as the substance, how does the step yield (coupling step, from 1-9e) read?
A: 57% yield from 1-9e

Q: With “(4S)-4-({2-[(1R,3R)-1-(acetyloxy)-3-[(2S,3S)-2-{[(2R)-1-[({4-[(2S)-2-[(2S)-2-[1-(4-{2-azatricyclo[10.4.0.0^4,9]hexadeca-1(12),4(9),5,7,13,15-hexaen-10-yn-2-yl}-4-oxobutanamido)-3,6,9,12-tetraoxapentadecan-15-amido]-3-methylbutanamido]-5-(carbamoylamino)pentanamido]phenyl}methoxy)carbonyl]-2-methylpyrrolidin-2-yl]formamido}-N-hexyl-3-methylpentanamido]-4-methylpentyl]-1,3-thiazol-4-yl}formamido)-5-(4-amino-3-fluorophenyl)-2,2-dimethylpentanoic acid” as the substance, how does the conjugation yield read?
A: 17% yield

Q: For “(4S)-4-({2-[(1R,3R)-1-(acetyloxy)-3-[(2S,3S)-2-{[(2R)-1-[({4-[(2S)-2-[(2S)-2-[1-(4-{2-azatricyclo[10.4.0.0^4,9]hexadeca-1(12),4(9),5,7,13,15-hexaen-10-yn-2-yl}-4-oxobutanamido)-3,6,9,12-tetraoxapentadecan-15-amido]-3-methylbutanamido]-5-(carbamoylamino)pentanamido]phenyl}methoxy)carbonyl]-2-methylpyrrolidin-2-yl]formamido}-N-hexyl-3-methylpentanamido]-4-methylpentyl]-1,3-thiazol-4-yl}formamido)-5-(4-hydroxyphenyl)-2,2-dimethylpentanoic acid”, which conjugation yield is on record?
A: 13% yield

Q: For “(4S)-4-({2-[(1R,3R)-1-(acetyloxy)-3-[(2S,3S)—N-hexyl-2-{[(2R)-1-(2-hydroxyethyl)-2-methylpyrrolidin-2-yl]formamido}-3-methylpentanamido]-4-methylpentyl]-1,3-thiazol-4-yl}formamido)-5-(4-aminophenyl)-2,2-dimethylpentanoic acid (PA-7 aka PA6)”, which step yield (coupling step, from 1-9c) is on record?
A: 28% yield from 1-9c

Q: Which step yield (coupling step, from 1-9d) does the source give for “(4S)-4-({2-[(1R,3R)-1-(acetyloxy)-3-[(2S,3S)—N-hexyl-2-{[(2R)-1-(2-hydroxyethyl)piperidin-2-yl]formamido}-3-methylpentanamido]-4-methylpentyl]-1,3-thiazol-4-yl}formamido)-5-(4-amino-3-fluorophenyl)-2,2-dimethylpentanoic acid (PA-9 aka PA8)” here?
A: 22% yield from 1-9d

Q: Which step yield (coupling step, from 1-9d) does the source give for “(4S)-4-({2-[(1R,3R)-1-(acetyloxy)-3-[(2S,3S)—N-hexyl-2-{[(2R)-1-(2-hydroxyethyl)piperidin-2-yl]formamido}-3-methylpentanamido]-4-methylpentyl]-1,3-thiazol-4-yl}formamido)-5-(4-aminophenyl)-2,2-dimethylpentanoic acid (PA-8 aka PA7)” here?
A: 31% yield from 1-9d
